Test results as given in the supplement of paper PMC8728848.
Some of the results follow.

How the values were obtained:
Experiment in all cases: glycan array binding signal (z-score within array); higher = stronger binding
Conditions in all cases: glycan notation: IUPAC condensed, linker removed
[1] = biological target: Neu5Ac(a2-3)Gal(b1-4)GlcNAc(b1-6)GalNAc
In short: (§1)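 The binding signal is a Z-score computed within each array. Data were drawn from 3228 arrays in the Consortium for Functional Glycomics database, restricted to those with a known protein sequence. Scores were averaged over arrays of the same protein sequence at different concentrations or buffers, and over linkers, and negative values can be taken as non-binding.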

[2] = biological target: Neu5Ac(a2-3)Gal(b1-4)GlcNAc(b1-6)[Gal(b1-3)]GalNAc
In short: as §1

[3] = biological target: Neu5Ac(a2-3)Gal(b1-4)GlcNAc(b1-6)[Neu5Ac(a2-3)Gal(b1-3)]GalNAc
In short: as §1

[4] = biological target: Neu5Ac(a2-3)Gal(b1-4)GlcNAc6S
In short: as §1

[5] = biological target: Neu5Ac(a2-3)Gal(b1-4)[Fuc(a1-3)]GlcNAc
In short: as §1

[6] = biological target: Neu5Ac(a2-3)Gal(b1-4)[Fuc(a1-3)]GlcNAc(b1-2)Man
In short: as §1

[7] = biological target: Neu5Ac(a2-3)Gal(b1-4)[Fuc(a1-3)]GlcNAc(b1-3)Gal
In short: as §1

[8] = biological target: Neu5Ac(a2-3)Gal(b1-4)[Fuc(a1-3)]GlcNAc(b1-3)Gal(b1-4)GlcNAc
In short: as §1

[9] = biological target: Neu5Ac(a2-3)Gal(b1-4)[Fuc(a1-3)]GlcNAc(b1-3)Gal(b1-4)[Fuc(a1-3)]GlcNAc(b1-3)Gal(b1-4)[Fuc(a1-3)]GlcNAc
In short: as §1

[10] = biological target: Neu5Ac(a2-3)Gal(b1-4)[Fuc(a1-3)]GlcNAc(b1-3)GalNAc
In short: as §1

[11] = biological target: Neu5Ac(a2-3)Gal(b1-4)[Fuc(a1-3)]GlcNAc(b1-6)[Gal(b1-3)]GalNAc
In short: as §1

[12] = biological target: Neu5Ac(a2-3)Gal(b1-4)[Fuc(a1-3)]GlcNAc(b1-6)[Neu5Ac(a2-3)Gal(b1-3)]GalNAc
In short: as §1

[13] = biological target: Neu5Ac(a2-3)Gal(b1-4)[Fuc(a1-3)]GlcNAc6S
In short: as §1

[14] = biological target: Neu5Ac(a2-3)Gal6S(b1-4)GlcNAc
In short: as §1

[15] = biological target: Neu5Ac(a2-3)Gal6S(b1-4)[Fuc(a1-3)]GlcNAc
In short: as §1

Neu5Ac(a2-3)GalNAc = biological target: Neu5Ac(a2-3)GalNAc
In short: as §1

[16] = biological target: Neu5Ac(a2-3)GalNAc(b1-4)GlcNAc
In short: as §1

[17] = biological target: Neu5Ac(a2-3)[GalNAc(b1-4)]Gal(b1-4)Glc
In short: as §1

[18] = biological target: Neu5Ac(a2-3)[GalNAc(b1-4)]Gal(b1-4)GlcNAc
In short: as §1

[19] = biological target: Neu5Ac(a2-3)[GalNAc(b1-4)]Gal(b1-4)GlcNAc(b1-3)GalNAc
In short: as §1

[20] = biological target: Neu5Ac(a2-3)[Neu5Ac(a2-6)]GalNAc
In short: as §1

Neu5Ac(a2-6)Gal = biological target: Neu5Ac(a2-6)Gal
In short: as §1

[21] = biological target: Neu5Ac(a2-6)Gal(b1-3)GlcNAc(b1-3)[Gal(b1-4)GlcNAc(b1-6)]Gal(b1-4)Glc
In short: as §1

Neu5Ac(a2-6)Gal(b1-4)Glc = biological target: Neu5Ac(a2-6)Gal(b1-4)Glc
In short: as §1

[22] = biological target: Neu5Ac(a2-6)Gal(b1-4)GlcNAc
In short: as §1

[23] = biological target: Neu5Ac(a2-6)Gal(b1-4)GlcNAc(b1-2)Man
In short: as §1

[24] = biological target: Neu5Ac(a2-6)Gal(b1-4)GlcNAc(b1-2)Man(a1-3)Man(b1-4)GlcNAc(b1-4)GlcNAc
In short: as §1

[25] = biological target: Neu5Ac(a2-6)Gal(b1-4)GlcNAc(b1-2)Man(a1-3)[Gal(b1-4)GlcNAc(b1-2)Man(a1-6)]Man(b1-4)GlcNAc(b1-4)GlcNAc
In short: as §1

[26] = biological target: Neu5Ac(a2-6)Gal(b1-4)GlcNAc(b1-2)Man(a1-3)[GlcNAc(b1-2)Man(a1-6)]Man(b1-4)GlcNAc(b1-4)GlcNAc
In short: as §1

[27] = biological target: Neu5Ac(a2-6)Gal(b1-4)GlcNAc(b1-2)Man(a1-3)[GlcNAc(b1-4)][Neu5Ac(a2-6)Gal(b1-4)GlcNAc(b1-2)Man(a1-6)]Man(b1-4)GlcNAc(b1-4)GlcNAc
In short: as §1

[28] = biological target: Neu5Ac(a2-6)Gal(b1-4)GlcNAc(b1-2)Man(a1-3)[Man(a1-6)]Man(b1-4)GlcNAc(b1-4)GlcNAc
In short: as §1

[29] = biological target: Neu5Ac(a2-6)Gal(b1-4)GlcNAc(b1-2)Man(a1-3)[Neu5Ac(a2-3)Gal(b1-4)GlcNAc(b1-2)Man(a1-6)]Man(b1-4)GlcNAc(b1-4)GlcNAc
In short: as §1

[30] = biological target: Neu5Ac(a2-6)Gal(b1-4)GlcNAc(b1-2)Man(a1-3)[Neu5Ac(a2-6)Gal(b1-4)GlcNAc(b1-2)Man(a1-6)]Man(b1-4)GlcNAc(b1-4)GlcNAc
In short: as §1

[31] = biological target: Neu5Ac(a2-6)Gal(b1-4)GlcNAc(b1-2)Man(a1-3)[Neu5Ac(a2-6)Gal(b1-4)GlcNAc(b1-2)Man(a1-6)]Man(b1-4)GlcNAc(b1-4)[Fuc(a1-6)]GlcNAc
In short: as §1

[32] = biological target: Neu5Ac(a2-6)Gal(b1-4)GlcNAc(b1-2)Man(a1-6)Man(b1-4)GlcNAc(b1-4)GlcNAc
In short: as §1

[33] = biological target: Neu5Ac(a2-6)Gal(b1-4)GlcNAc(b1-2)Man(a1-6)[Gal(b1-4)GlcNAc(b1-2)Man(a1-3)]Man(b1-4)GlcNAc(b1-4)GlcNAc
In short: as §1

[34] = biological target: Neu5Ac(a2-6)Gal(b1-4)GlcNAc(b1-2)Man(a1-6)[GlcNAc(b1-2)Man(a1-3)]Man(b1-4)GlcNAc(b1-4)GlcNAc
In short: as §1

[35] = biological target: Neu5Ac(a2-6)Gal(b1-4)GlcNAc(b1-2)Man(a1-6)[Man(a1-3)]Man(b1-4)GlcNAc(b1-4)GlcNAc
In short: as §1

[36] = biological target: Neu5Ac(a2-6)Gal(b1-4)GlcNAc(b1-2)[Neu5Ac(a2-6)Gal(b1-4)GlcNAc(b1-4)]Man(a1-3)[GlcNAc(b1-4)][Neu5Ac(a2-6)Gal(b1-4)GlcNAc(b1-2)[Neu5Ac(a2-6)Gal(b1-4)GlcNAc(b1-6)]Man(a1-6)]Man(b1-4)GlcNAc(b1-4)GlcNAc
In short: as §1

[37] = biological target: Neu5Ac(a2-6)Gal(b1-4)GlcNAc(b1-2)[Neu5Ac(a2-6)Gal(b1-4)GlcNAc(b1-4)]Man(a1-3)[GlcNAc(b1-4)][Neu5Ac(a2-6)Gal(b1-4)GlcNAc(b1-4)Man(a1-6)]Man(b1-4)GlcNAc(b1-4)GlcNAc
In short: as §1

[38] = biological target: Neu5Ac(a2-6)Gal(b1-4)GlcNAc(b1-2)[Neu5Ac(a2-6)Gal(b1-4)GlcNAc(b1-6)]Man(a1-6)[Neu5Ac(a2-6)Gal(b1-4)GlcNAc(b1-2)Man(a1-3)][GlcNAc(b1-4)]Man(b1-4)GlcNAc(b1-4)GlcNAc
In short: as §1

[39] = biological target: Neu5Ac(a2-6)Gal(b1-4)GlcNAc(b1-3)Gal(b1-3)GlcNAc
In short: as §1

[40] = biological target: Neu5Ac(a2-6)Gal(b1-4)GlcNAc(b1-3)Gal(b1-4)GlcNAc
In short: as §1

[41] = biological target: Neu5Ac(a2-6)Gal(b1-4)GlcNAc(b1-3)Gal(b1-4)GlcNAc(b1-2)Man(a1-3)[Neu5Ac(a2-6)Gal(b1-4)GlcNAc(b1-3)Gal(b1-4)GlcNAc(b1-2)Man(a1-6)]GalNAc
In short: as §1

[42] = biological target: Neu5Ac(a2-6)Gal(b1-4)GlcNAc(b1-3)Gal(b1-4)GlcNAc(b1-3)Gal(b1-4)GlcNAc
In short: as §1

B1: Aap lectin (Staphylococcus epidermidis) (protein)
chain: VNLNYSSPFMSLLSMPADSSSNNTKNTIDIPPTTVKGRDNYDFYGRVDIESNPTDLNATNLTRYNYGQPPGTTTAGAVQFKNQVSFDKDFDFNIRVANNRQSNTTGADGWGFMFSKKDGDDFLKNGGILREKGTPSAAGFRIDTGYYNNDPLDKIQKQAGQGYRGYGTFVKNDSQGNTSKVGSGTPSTDFLNYADNTTNDLDGKFHGQKLNNVNLKYNASNQTFTATYAGKTWTATLSELGLSPTDSYNFLVTSS
glycan array binding signal (z-score) [1]: -0.544 | glycan array binding signal (z-score) [2]: 1.15 | glycan array binding signal (z-score) [3]: -0.634 | glycan array binding signal (z-score) [4]: 0.165 | glycan array binding signal (z-score) [5]: -0.756 | glycan array binding signal (z-score) [6]: -0.708 | glycan array binding signal (z-score) [7]: -0.104 | glycan array binding signal (z-score) [8]: -0.095 | glycan array binding signal (z-score) [9]: 1.12 | glycan array binding signal (z-score) [10]: -0.446 | glycan array binding signal (z-score) [11]: 1.22 | glycan array binding signal (z-score) [12]: 1.18 | glycan array binding signal (z-score) [13]: -0.838 | glycan array binding signal (z-score) [14]: -0.476 | glycan array binding signal (z-score) [15]: 0.427 | glycan array binding signal (z-score) (Neu5Ac(a2-3)GalNAc): -0.889 | glycan array binding signal (z-score) [16]: -0.779 | glycan array binding signal (z-score) [17]: 1.1 | glycan array binding signal (z-score) [18]: -0.908 | glycan array binding signal (z-score) [19]: 1.26 | glycan array binding signal (z-score) [20]: -0.893 | glycan array binding signal (z-score) (Neu5Ac(a2-6)Gal): 0.438 | glycan array binding signal (z-score) [21]: -0.894 | glycan array binding signal (z-score) (Neu5Ac(a2-6)Gal(b1-4)Glc): 0.627 | glycan array binding signal (z-score) [22]: -0.602 | glycan array binding signal (z-score) [23]: -0.328 | glycan array binding signal (z-score) [24]: -0.873 | glycan array binding signal (z-score) [25]: -0.696 | glycan array binding signal (z-score) [26]: -0.88 | glycan array binding signal (z-score) [27]: -0.576 | glycan array binding signal (z-score) [28]: -0.436 | glycan array binding signal (z-score) [29]: 1.27 | glycan array binding signal (z-score) [30]: 0.597 | glycan array binding signal (z-score) [31]: 1.17 | glycan array binding signal (z-score) [32]: -0.806 | glycan array binding signal (z-score) [33]: -0.882 | glycan array binding signal (z-score) [34]: -0.898 | glycan array binding signal (z-score) [35]: -0.456 | glycan array binding signal (z-score) [36]: 0.098 | glycan array binding signal (z-score) [37]: -0.886 | glycan array binding signal (z-score) [38]: -0.834 | glycan array binding signal (z-score) [39]: -0.907 | glycan array binding signal (z-score) [40]: -0.424 | glycan array binding signal (z-score) [41]: -0.905 | glycan array binding signal (z-score) [42]: -0.888
